# Measurements taken from the supplement of paper PMC8728848.
# Some of the results follow.
# B1: CD23 (Homo sapiens) (protein)
# chain: MELQVSSGFVCNTCPEKWINFQRKCYYFGKGTKQWVHARYACDDMEGQLVSIHSPEEQDFLTKHASHTGSWIGLRNLDLKGEFIWVDGSHVDYSNWAPGEPTSRSQGEDCVMMRGSGRWNDAFCDRKLGAWVCDRLATCTPPASEGSAESMGPDSRPDPDGRLPTPSAPLHS
# How the values were obtained:
# Assay in all cases: glycan array binding signal (z-score within array); higher = stronger binding
# Conditions in all cases: glycan notation: IUPAC condensed, linker removed
# [1] = biological target: GlcNAc(b1-2)Gal(b1-3)GalNAc
# Procedure, shortened: (§1)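 Columns mapping to the same glycan were averaged after glycan names were converted to IUPAC-condensed notation. The data come from 3228 arrays in the Consortium for Functional Glycomics database, limited to those with an available protein sequence. Binding is reported as a within-array Z-score averaged across arrays of one protein sequence and across linkers.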
# [2] = biological target: GlcNAc(b1-2)Man(a1-3)[GlcNAc(b1-2)Man(a1-6)]Man(b1-4)GlcNAc(b1-4)GlcNAc
# Procedure, shortened: as §1
# [3] = biological target: GlcNAc(b1-3)Gal
# Procedure, shortened: as §1
# [4] = biological target: GlcNAc(b1-3)Gal(b1-3)GalNAc
# Procedure, shortened: as §1
# [5] = biological target: GlcNAc(b1-3)Gal(b1-4)Glc
# Procedure, shortened: as §1
# [6] = biological target: GlcNAc(b1-3)Gal(b1-4)GlcNAc
# Procedure, shortened: as §1
# [7] = biological target: GlcNAc(b1-3)Gal(b1-4)GlcNAc(b1-3)Gal(b1-4)GlcNAc
# Procedure, shortened: as §1
# [8] = biological target: GlcNAc(b1-3)GalNAc
# Procedure, shortened: as §1
# [9] = biological target: GlcNAc(b1-3)[GlcNAc(b1-4)][GlcNAc(b1-6)]GlcNAc
# Procedure, shortened: as §1
# [10] = biological target: GlcNAc(b1-3)[GlcNAc(b1-6)]Gal(b1-4)GlcNAc
# Procedure, shortened: as §1
# [11] = biological target: GlcNAc(b1-3)[GlcNAc(b1-6)]GalNAc
# Procedure, shortened: as §1
# [12] = biological target: GlcNAc(b1-4)Gal(b1-4)GlcNAc
# Procedure, shortened: as §1
# [13] = biological target: GlcNAc(b1-4)GlcNAc(b1-4)GlcNAc
# Procedure, shortened: as §1
# [14] = biological target: GlcNAc(b1-4)GlcNAc(b1-4)GlcNAc(b1-4)GlcNAc(b1-4)GlcNAc
# Procedure, shortened: as §1
# [15] = biological target: GlcNAc(b1-4)GlcNAc(b1-4)GlcNAc(b1-4)GlcNAc(b1-4)GlcNAc(b1-4)GlcNAc
# Procedure, shortened: as §1
# [16] = biological target: GlcNAc(b1-4)[GlcNAc(b1-6)]GalNAc
# Procedure, shortened: as §1
# [17] = biological target: GlcNAc(b1-6)Gal(b1-4)GlcNAc
# Procedure, shortened: as §1
# [18] = biological target: GlcNAc(b1-6)GalNAc
# Procedure, shortened: as §1
# [19] = biological target: Kdn(a2-3)Gal(b1-3)GlcNAc
# Procedure, shortened: as §1
# [20] = biological target: Kdn(a2-3)Gal(b1-4)GlcNAc
# Procedure, shortened: as §1
# [21] = biological target: Man(a1-2)Man(a1-2)Man(a1-3)Man
# Procedure, shortened: as §1
# [22] = biological target: Man(a1-2)Man(a1-2)Man(a1-6)[Man(a1-3)]Man
# Procedure, shortened: as §1
# [23] = biological target: Man(a1-2)Man(a1-3)Man
# Procedure, shortened: as §1
# [24] = biological target: Man(a1-2)Man(a1-3)[Man(a1-2)Man(a1-6)]Man
# Procedure, shortened: as §1
# [25] = biological target: Man(a1-2)Man(a1-3)[Man(a1-2)Man(a1-6)]Man(a1-6)[Man(a1-2)Man(a1-2)Man(a1-3)]Man(b1-4)GlcNAc(b1-4)GlcNAc
# Procedure, shortened: as §1
# [26] = biological target: Man(a1-2)Man(a1-3)[Man(a1-2)Man(a1-6)]Man(a1-6)[Man(a1-3)[Man(a1-6)]Man(a1-6)]Man(b1-4)GlcNAc(b1-4)GlcNAc
# Procedure, shortened: as §1
# [27] = biological target: Man(a1-2)Man(a1-3)[Man(a1-6)]Man(a1-6)[Man(a1-2)Man(a1-3)]Man(b1-4)GlcNAc(b1-4)GlcNAc
# Procedure, shortened: as §1
# [28] = biological target: Man(a1-2)Man(a1-6)[Man(a1-3)]Man(a1-6)[Man(a1-2)Man(a1-2)Man(a1-3)]Man(b1-4)GlcNAc(b1-4)GlcNAc
# Procedure, shortened: as §1
# [29] = biological target: Man(a1-3)[Man(a1-6)]Man
# Procedure, shortened: as §1
# [30] = biological target: Man(a1-3)[Man(a1-6)]Man(a1-6)[Man(a1-3)]Man(b1-4)GlcNAc(b1-4)GlcNAc
# Procedure, shortened: as §1
# [31] = biological target: Man(a1-3)[Man(a1-6)]Man(b1-4)GlcNAc(b1-4)GlcNAc
# Procedure, shortened: as §1
# [32] = biological target: Man(b1-4)GlcNAc
# Procedure, shortened: as §1
# [33] = biological target: Neu5Ac(a2-3)Gal
# Procedure, shortened: as §1
# [34] = biological target: Neu5Ac(a2-3)Gal(b1-3)GalNAc
# Procedure, shortened: as §1
# [35] = biological target: Neu5Ac(a2-3)Gal(b1-3)GalNAc(b1-3)Gal(a1-4)Gal(b1-4)Glc
# Procedure, shortened: as §1
# [36] = biological target: Neu5Ac(a2-3)Gal(b1-3)GalNAc(b1-3)Gal(b1-4)GlcNAc
# Procedure, shortened: as §1
# [37] = biological target: Neu5Ac(a2-3)Gal(b1-3)GalNAc(b1-4)[Neu5Ac(a2-3)]Gal(b1-4)Glc
# Procedure, shortened: as §1
# [38] = biological target: Neu5Ac(a2-3)Gal(b1-3)GalNAc6S
# Procedure, shortened: as §1
# [39] = biological target: Neu5Ac(a2-3)Gal(b1-3)GlcNAc
# Procedure, shortened: as §1
# [40] = biological target: Neu5Ac(a2-3)Gal(b1-3)GlcNAc(b1-3)Gal(b1-3)GlcNAc
# Procedure, shortened: as §1
# [41] = biological target: Neu5Ac(a2-3)Gal(b1-3)GlcNAc6S
# Procedure, shortened: as §1
# [42] = biological target: Neu5Ac(a2-3)Gal(b1-3)[Fuc(a1-4)]GlcNAc
# Procedure, shortened: as §1
# [43] = biological target: Neu5Ac(a2-3)Gal(b1-3)[Fuc(a1-4)]GlcNAc(b1-3)Gal(b1-4)[Fuc(a1-3)]GlcNAc
# Procedure, shortened: as §1
# [44] = biological target: Neu5Ac(a2-3)Gal(b1-3)[Neu5Ac(a2-3)Gal(b1-4)]GlcNAc
# Procedure, shortened: as §1
# [45] = biological target: Neu5Ac(a2-3)Gal(b1-3)[Neu5Ac(a2-6)]GalNAc
# Procedure, shortened: as §1
binder,measurement,setting,value
B1,glycan array binding signal (z-score),[1],0.682
same,glycan array binding signal (z-score),[2],-0.157
same,glycan array binding signal (z-score),[3],-0.438
same,glycan array binding signal (z-score),[4],1.43
same,glycan array binding signal (z-score),[5],-0.494
same,glycan array binding signal (z-score),[6],-0.603
same,glycan array binding signal (z-score),[7],-0.545
same,glycan array binding signal (z-score),[8],-0.037
same,glycan array binding signal (z-score),[9],0.272
same,glycan array binding signal (z-score),[10],-0.28
same,glycan array binding signal (z-score),[11],-0.473
same,glycan array binding signal (z-score),[12],-0.324
same,glycan array binding signal (z-score),[13],-0.139
same,glycan array binding signal (z-score),[14],-0.214
same,glycan array binding signal (z-score),[15],-0.781
same,glycan array binding signal (z-score),[16],-0.533
same,glycan array binding signal (z-score),[17],-0.37
same,glycan array binding signal (z-score),[18],-0.067
same,glycan array binding signal (z-score),[19],-0.186
same,glycan array binding signal (z-score),[20],0.298
same,glycan array binding signal (z-score),[21],-0.2
same,glycan array binding signal (z-score),[22],-0.299
same,glycan array binding signal (z-score),[23],0.191
same,glycan array binding signal (z-score),[24],-0.146
same,glycan array binding signal (z-score),[25],-0.233
same,glycan array binding signal (z-score),[26],0.212
same,glycan array binding signal (z-score),[27],0.201
same,glycan array binding signal (z-score),[28],-0.425
same,glycan array binding signal (z-score),[29],0.253
same,glycan array binding signal (z-score),[30],0.18
same,glycan array binding signal (z-score),[31],-0.352
same,glycan array binding signal (z-score),[32],-0.469
same,glycan array binding signal (z-score),[33],-0.385
same,glycan array binding signal (z-score),[34],-0.417
same,glycan array binding signal (z-score),[35],-0.271
same,glycan array binding signal (z-score),[36],-0.388
same,glycan array binding signal (z-score),[37],-0.58
same,glycan array binding signal (z-score),[38],-0.3
same,glycan array binding signal (z-score),[39],-0.073
same,glycan array binding signal (z-score),[40],-0.189
same,glycan array binding signal (z-score),[41],-0.588
same,glycan array binding signal (z-score),[42],-0.278
same,glycan array binding signal (z-score),[43],0.596
same,glycan array binding signal (z-score),[44],0.023
same,glycan array binding signal (z-score),[45],-0.537

# Two entries from above in another layout.
binder	measurement	setting	value
B1	glycan array binding signal (z-score)	[31]	-0.352
same	glycan array binding signal (z-score)	[32]	-0.469
